From PMC11106861
These are yes or no findings as the source states them, for the method shown. Binding seen in cells or lysates may run through a third protein. A result given as binding can be weak or reduced; the word gives no strength. Values belong to the molecule of their own block, whether it stands above or below them.

Assays:
[1] = target: T1, Suppressor of Hairy wings (Su(Hw)) insulator-binding protein (Drosophila (endogenous in S2 cells)) (UniProt P08970); assay: co-IP; immunoprecipitations from nuclear protein extract of Drosophila S2 cells with antibodies against Combgap or Su(Hw); IgG of non-immunized rabbits as negative control; Western blot
T1 sequence: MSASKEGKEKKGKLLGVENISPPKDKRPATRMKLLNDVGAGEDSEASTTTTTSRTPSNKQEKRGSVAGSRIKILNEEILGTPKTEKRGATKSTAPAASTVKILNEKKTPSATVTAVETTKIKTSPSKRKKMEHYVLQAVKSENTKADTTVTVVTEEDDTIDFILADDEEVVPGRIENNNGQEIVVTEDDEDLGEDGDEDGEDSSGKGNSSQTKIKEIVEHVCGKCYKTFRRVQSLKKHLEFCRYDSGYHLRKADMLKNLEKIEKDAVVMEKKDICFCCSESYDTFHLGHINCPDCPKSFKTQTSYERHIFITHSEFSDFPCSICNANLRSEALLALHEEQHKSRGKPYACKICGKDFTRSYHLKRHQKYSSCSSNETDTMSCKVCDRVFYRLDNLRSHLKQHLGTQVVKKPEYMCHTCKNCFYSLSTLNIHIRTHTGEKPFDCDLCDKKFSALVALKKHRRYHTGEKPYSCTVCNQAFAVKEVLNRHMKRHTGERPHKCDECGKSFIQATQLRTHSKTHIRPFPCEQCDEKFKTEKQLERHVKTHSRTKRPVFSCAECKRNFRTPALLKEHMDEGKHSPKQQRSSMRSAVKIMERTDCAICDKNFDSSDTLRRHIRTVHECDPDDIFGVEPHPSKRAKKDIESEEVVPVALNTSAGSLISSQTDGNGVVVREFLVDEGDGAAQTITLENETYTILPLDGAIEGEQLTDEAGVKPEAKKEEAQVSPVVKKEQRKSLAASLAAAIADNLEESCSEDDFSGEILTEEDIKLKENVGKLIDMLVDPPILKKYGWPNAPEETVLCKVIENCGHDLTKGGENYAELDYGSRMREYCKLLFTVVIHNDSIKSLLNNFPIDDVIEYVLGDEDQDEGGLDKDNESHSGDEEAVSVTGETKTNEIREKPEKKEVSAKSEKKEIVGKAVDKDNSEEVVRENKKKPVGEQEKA

[2] = target: Combgap (Drosophila (endogenous in S2 cells)); assay: as above

- binding [1]: binds
Molecule: Combgap (Drosophila (endogenous in S2 cells))

- binding [2]: binds
B1: Suppressor of Hairy wings (Su(Hw)) insulator-binding protein (protein, UniProt P08970 1-941)
chain: T1 sequence
